According to article PMC7824566:
Results are given in words; binding and its absence hold for the method and conditions named. Binding calls can cover weak binding; strength is not graded here.

Sequences of proteins named here, by UniProt entry; tags and fusion partners are left off. A change or cut given only in a name is not applied to a line headed by its entry.
UniProt Q94IB6: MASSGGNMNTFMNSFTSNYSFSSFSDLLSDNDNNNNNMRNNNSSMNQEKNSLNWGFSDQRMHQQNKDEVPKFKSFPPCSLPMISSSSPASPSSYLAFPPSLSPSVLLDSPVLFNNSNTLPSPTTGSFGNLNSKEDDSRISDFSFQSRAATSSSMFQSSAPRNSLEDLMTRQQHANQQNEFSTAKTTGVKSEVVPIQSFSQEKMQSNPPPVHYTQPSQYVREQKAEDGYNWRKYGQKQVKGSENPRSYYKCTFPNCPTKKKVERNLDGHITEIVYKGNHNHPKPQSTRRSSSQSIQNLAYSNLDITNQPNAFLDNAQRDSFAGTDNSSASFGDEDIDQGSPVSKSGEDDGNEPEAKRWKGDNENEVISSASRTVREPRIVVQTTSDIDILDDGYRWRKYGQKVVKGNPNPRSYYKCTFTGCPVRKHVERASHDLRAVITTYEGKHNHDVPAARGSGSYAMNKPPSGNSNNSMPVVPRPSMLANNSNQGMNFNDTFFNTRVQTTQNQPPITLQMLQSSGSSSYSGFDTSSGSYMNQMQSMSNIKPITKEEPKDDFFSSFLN

Biological target: GST-WIPK (wound-induced protein kinase) (Nicotiana tabacum)
Test: pull-down; GST-NtMAPKs on Glutathione Sepharose 4 Fast Flow used to pull down MBP-NtWRKYs in vitro, 2 h at 4 °C; Western blot with anti-MBP antibody; both purified

MBP-NtWRKY6 (from UniProt Q94IB6)
binding: binds
